We go through two molecules from paper PMC4081092.

Results are given in words; binding and its absence hold for the method and conditions named. For some assays here: In cells and extracts the contact can be indirect. Some entries that bind do so weakly or less than the wild type. Tags and fused reporters may be left off the sequences shown.

Common to all, as to settings: remark: other sources report otherwise
Experiment [1] addresses Full-length U2AF65 coupled to GFP, P26368. Kind of experiment: co-IP; GFP-tagged bait and HA-tagged or untagged partners co-expressed in HEK 293T cells, lysate precipitated with the GFP-nanotrap, immunoblot. For orientation: In western blotting, separated proteins are transferred to a membrane and probed.
For experiment [2] the target is unchanged. Kind of experiment: native gel or EMSA; lysates of HEK 293T cells co-expressing the proteins on a non-denaturing gel (7% acrylamide, 80 mM Tris/HCl pH 7.3), blotted and co-stained with two antibodies; co-migration in one band.
The target in experiment [3] is T1, U2AF35-GFP, Q01081.
T1 chain: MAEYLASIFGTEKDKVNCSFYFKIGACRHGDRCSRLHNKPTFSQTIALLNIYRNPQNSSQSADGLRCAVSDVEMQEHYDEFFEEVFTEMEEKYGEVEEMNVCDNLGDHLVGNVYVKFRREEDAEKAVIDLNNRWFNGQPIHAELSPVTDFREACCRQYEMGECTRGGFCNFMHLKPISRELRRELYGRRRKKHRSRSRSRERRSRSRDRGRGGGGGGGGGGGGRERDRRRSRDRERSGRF
Kind of experiment: co-IP; GFP-tagged bait and HA-tagged or untagged partners co-expressed in HEK 293T cells, lysate precipitated with the GFP-nanotrap, immunoblot.

In experiment [4] the target is T1, U2AF35-GFP, Q01081. Put plainly: co-IP; as a3, with RNase A (1 mg/ml, 30 min) added to the lysis buffer before the GFP pulldown.
The target in experiment [5] is T1, U2AF35-GFP, Q01081. Kind of experiment: native gel or EMSA; lysates of HEK 293T cells co-expressing the proteins on a non-denaturing gel (7% acrylamide, 80 mM Tris/HCl pH 7.3), blotted and co-stained with two antibodies; co-migration in one band.

B1: HA-tagged U2AF35, Q01081 1-240 (protein)
chain: T1 chain
Take B1: the binding entry in experiment [1] and in experiment [2] was “binds” in each case.

B2: HA-tagged U2AF65, P26368 1-475 (protein)
chain: MSDFDEFERQLNENKQERDKENRHRKRSHSRSRSRDRKRRSRSRDRRNRDQRSASRDRRRRSKPLTRGAKEEHGGLIRSPRHEKKKKVRKYWDVPPPGFEHITPMQYKAMQAAGQIPATALLPTMTPDGLAVTPTPVPVVGSQMTRQARRLYVGNIPFGITEEAMMDFFNAQMRLGGLTQAPGNPVLAVQINQDKNFAFLEFRSVDETTQAMAFDGIIFQGQSLKIRRPHDYQPLPGMSENPSVYVPGVVSTVVPDSAHKLFIGGLPNYLNDDQVKELLTSFGPLKAFNLVKDSATGLSKGYAFCEYVDINVTDQAIAGLNGMQLGDKKLLVQRASVGAKNATLVSPPSTINQTPVTLQVPGLMSSQVQMGGHPTEVLCLMNMVLPEELLDDEEYEEIVEDVRDECSKYGLVKSIEIPRPVDGVEVPGCGKIFVEFTSVFDCQKAMQGLTGRKFANRVVVTKYCDPDSYHRRDFW
B2: the binding entry was “binds” with U2AF35-GFP, Q01081 [3]; “binds” with U2AF35-GFP, Q01081 [4]; “binds” with U2AF35-GFP, Q01081 [5].
